Reference: patent US8685974B2 (Bayer CropScience AG, priority 2009, dated 2014)

Assay: physchem
Conditions: pH 2.7

logP: 1.3
Compound: c1csc(-c2cc[nH]n2)c1 [3-(2-Thienyl)-1H-pyrazole]
